PubChem BioAssay AID662 (National Center for Advancing Translational Sciences (NCATS), 2007)
This is one part of the list. The main result of the screen is listed elsewhere. These columns were measured beside it and carry no call. The list favours compounds with an active or inconclusive main result. Potencies come from curve fits of mixed quality, noted in brackets.

Test: Cell signaling CRE-BLA (Fsk stim)
Settings: CHO CRE-bla reporter (cAMP response element driving beta-lactamase), forskolin EC10, beta-lactamase ratio; measured here: 460 nm blue channel
Source text: NIH Molecular Libraries Screening Centers Network [MLSCN]
NIH Chemical Genomics Center [NCGC]
Assay Provider: Marshall W. Nirenberg, U.S. National heart lung & blood institute
Memories persist for different lengths of time, from seconds or minutes to a lifetime. There are two kinds of memory: short-term memory (STM) and long-term memory (LTM). STM lasts for minutes to hours, which maybe mediated by modifications of molecules involved in synaptic functions. LTM lasts for days or longer, and may be due to the formation of new synapses or restructuring of existing synapses. LTM, but not STM, requires gene transcription and synthesis of proteins. CREB (cyclic-AMP Responsive Element Binding Protein) is one of the candidates plays an important role for enhancement of some types of LTM. CREB, a family of transcription factors, regulates the transcription of genes containing cAMP Responsive Elements (CRE). CRE is a nucleotide sequence often found in the promoter regions of genes that are binding sites for CREB.
Using a beta-lactamase reporter-gene under control of cAMP responsive element, a cell-based assay [CellSensor(TM) CRE-bla CHO developed by Invitrogen Corp.] was used to measure forskolin-induced signaling. Library compounds were measured for their ability to modulate positively or negatively the action of EC10 NKH 477, a water soluble forskolin, on reporter gene activity. Compounds were screened in a titration series in 1536-well format. Positive and negative modulators were identified based on the AC50 values derived from the screening data.
NCGC Assay Protocol Summary
2000 cells/5uL in Opti-MEM medium containing 0.5% dialyzed FBS, 0.1 mM NEAA, 1 mM sodium pyruvate and 10 mM HEPES was dispensed into 1536-well plates and cells were cultured at 37 degrees Celsius overnight. […] And then the plates were incubated at 37 degrees Celsius for 3 hours. 1 uL of CCF4-dye mixture was added to each well. After incubated at room temperature for 2 hours the plates were measured on an EnVision plate reader at Excitation 405nm, Emission1=460nm and Emission 2=530nm. The %Activity was determined from the ratio of 460nm/530nm.
Keywords: NIH Roadmap, MLSCN, MLSMR, qHTS, NCGC, CRE, beta-lactamase reporter-gene assay.

Compound	AC50
Cc1ccc2cc(CCNS(=O)(=O)c3ccc(F)cc3)c(=O)[nH]c2c1	12.6 µM [rising, partial curve]
COC(=O)c1[nH]c(=O)c2ccccc2c1OCc1ccccc1	0.316 µM [rising, full curve, poor fit]
CCn1nc(C(=O)OCC(=O)c2c[nH]c3ccccc23)c2ccccc2c1=O	6.31 µM [rising, partial curve]
O=C(Cn1cnc2c(nnn2Cc2ccc(F)cc2)c1=O)N1CCCCC1	0.0794 µM [rising, full curve, poor fit]
c1cncc(-c2ccc3ncnc(N4CCNCC4)c3c2)c1	10 µM [rising, partial curve]
N#CC(C#N)=NNc1ccc2cn[nH]c2c1	2.51 µM [falling, partial curve]
CCOC(=O)c1cnc2c(C#N)c(C)nn2c1-c1ccccc1	5.01 µM [rising, partial curve]
COc1ccc(-n2c(Cc3cccn3C)nnc2SCC(=O)Nc2cccc(OC)c2)cc1	6.31 µM [falling, partial curve]
COc1cc(C2=NOC(C(=O)NC3CCCCC3)C2)cc(OC)c1OC (centres undefined)	0.00398 µM [falling, full curve]
N#CCCn1c(=O)c(-c2ccc(Cl)cc2)nc2cnc(Oc3ccccc3)nc21	5.01 µM [rising, single point]
CCOC(=O)c1c(C)c(C(=O)Nc2cc(F)ccc2F)c(C)n1C	10 µM [rising, partial curve]
CNc1nc(Nc2ccc(C(C)=O)cc2)nc(OC(C(F)(F)F)C(F)(F)F)n1	0.631 µM [rising, full curve]
Cn1cccc1C(=O)N1CCC[C@@]2(CCN(Cc3cc(C(F)(F)F)cc(C(F)(F)F)c3)C2)C1	20 µM [rising, single point]
N#Cc1cccc(-c2nnc(SCc3ccccc3C#N)o2)c1	10 µM [rising, partial curve]
CCOC(=O)c1cnc(Nc2ccc(OCC)cc2)nc1C	5.01 µM [falling, single point]
CCCOc1ccc(CSc2nnc(CCC)n2N)cc1	3.98 µM [falling, partial curve]
COc1ccc(Cc2nnc(NC(=O)Cc3cccs3)s2)cc1OC	12.6 µM [rising, partial curve]
N#Cc1sc2nc(-c3ccccc3)cc(-c3ccco3)c2c1N	25.1 µM [rising, single point]
COc1ccccc1-n1c(SCC(=O)Nc2ccccc2C)nc(O)cc1=O	1 µM [falling, full curve, poor fit]
